In the supplement of paper PMC7661543:
The effect of the compound repeats well; differences between the knockouts mostly do not.

Tested on: HCC-38
Experiment: relative cell number vs DMSO control (72 h) (% of DMSO); higher = less growth inhibition (more cells)
Description: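 QMAP-Seq: a pool of 5 breast cancer cell lines (ZR-75-1, SKBR3, HCC-38, MDA-MB-231, BT-20), each carrying 12 doxycycline-inducible Cas9 sgRNA perturbations (11 knockouts plus non-targeting sgNT), was treated with compounds for 72 h at four 10-fold doses (10 nM-10 uM or 1 nM-1 uM range). Barcodes were amplified and sequenced, and cell number was interpolated from 293T spike-in standard curves. The result is expressed as % of the median of DMSO wells. Two biological replicates.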

COc1cc2nc(N3CCCN(C)CC3)nc(NC3CCN(Cc4ccccc4)CC3)c2cc1OC
Conditions | relative cell number
sgRNA knockout: sgATF3, 10 nM | 120
sgRNA knockout: sgATF3, 100 nM | 108
sgRNA knockout: sgATF3, 1000 nM | 80.9
sgRNA knockout: sgATF3, 10000 nM | 5.49
sgRNA knockout: sgATF4, 10 nM | 109
sgRNA knockout: sgATF4, 100 nM | 119
sgRNA knockout: sgATF4, 1000 nM | 82.2
sgRNA knockout: sgATF4, 10000 nM | 5.39
sgRNA knockout: sgATF6, 10 nM | 112
sgRNA knockout: sgATF6, 100 nM | 98.9
sgRNA knockout: sgATF6, 1000 nM | 83.6
sgRNA knockout: sgATF6, 10000 nM | 4.37
sgRNA knockout: sgATG7, 10 nM | 105
sgRNA knockout: sgATG7, 100 nM | 96.6
sgRNA knockout: sgATG7, 1000 nM | 78.3
sgRNA knockout: sgATG7, 10000 nM | 5.72
sgRNA knockout: sgERN1, 10 nM | 94.7
sgRNA knockout: sgERN1, 100 nM | 106
sgRNA knockout: sgERN1, 1000 nM | 82.1
sgRNA knockout: sgERN1, 10000 nM | 4.61
sgRNA knockout: sgHSF1, 10 nM | 89.6
sgRNA knockout: sgHSF1, 100 nM | 98.1
sgRNA knockout: sgHSF1, 1000 nM | 78.4
sgRNA knockout: sgHSF1, 10000 nM | 5.42
sgRNA knockout: sgHSF2, 10 nM | 106
sgRNA knockout: sgHSF2, 100 nM | 103
sgRNA knockout: sgHSF2, 1000 nM | 89.3
sgRNA knockout: sgHSF2, 10000 nM | 4.7
sgRNA knockout: sgKEAP1, 10 nM | 96
sgRNA knockout: sgKEAP1, 100 nM | 101
sgRNA knockout: sgKEAP1, 1000 nM | 93.4
sgRNA knockout: sgKEAP1, 10000 nM | 6.21
sgRNA knockout: sgNFE2L2, 10 nM | 107
sgRNA knockout: sgNFE2L2, 100 nM | 110
sgRNA knockout: sgNFE2L2, 1000 nM | 78.5
sgRNA knockout: sgNFE2L2, 10000 nM | 4.67
sgRNA knockout: sgSLC35F2, 10 nM | 99.6
sgRNA knockout: sgSLC35F2, 100 nM | 106
sgRNA knockout: sgSLC35F2, 1000 nM | 83.9
sgRNA knockout: sgSLC35F2, 10000 nM | 5.81
sgRNA knockout: sgXBP1, 10 nM | 112
sgRNA knockout: sgXBP1, 100 nM | 107
sgRNA knockout: sgXBP1, 1000 nM | 80.9
sgRNA knockout: sgXBP1, 10000 nM | 5.47

Cc1ccc(Nc2nccc(N(C)c3ccc4c(C)n(C)nc4c3)n2)cc1S(N)(=O)=O [Pazopanib]
Conditions | relative cell number
sgRNA knockout: sgATF3, 10 nM | 99.9
sgRNA knockout: sgATF3, 100 nM | 90.5
sgRNA knockout: sgATF3, 1000 nM | 88.1
sgRNA knockout: sgATF3, 10000 nM | 60.3
sgRNA knockout: sgATF4, 10 nM | 97.8
sgRNA knockout: sgATF4, 100 nM | 95.9
sgRNA knockout: sgATF4, 1000 nM | 97
sgRNA knockout: sgATF4, 10000 nM | 61.5
sgRNA knockout: sgATF6, 10 nM | 84.9
sgRNA knockout: sgATF6, 100 nM | 91.6
sgRNA knockout: sgATF6, 1000 nM | 97.1
sgRNA knockout: sgATF6, 10000 nM | 57.5
sgRNA knockout: sgATG7, 10 nM | 90.5
sgRNA knockout: sgATG7, 100 nM | 87.1
sgRNA knockout: sgATG7, 1000 nM | 86.6
sgRNA knockout: sgATG7, 10000 nM | 56.1
sgRNA knockout: sgERN1, 10 nM | 97.9
sgRNA knockout: sgERN1, 100 nM | 89.8
sgRNA knockout: sgERN1, 1000 nM | 92.361
sgRNA knockout: sgERN1, 10000 nM | 61.62
sgRNA knockout: sgHSF1, 10 nM | 92.7
sgRNA knockout: sgHSF1, 100 nM | 78.4
sgRNA knockout: sgHSF1, 1000 nM | 90.1
sgRNA knockout: sgHSF1, 10000 nM | 53.3
sgRNA knockout: sgHSF2, 10 nM | 96.6
sgRNA knockout: sgHSF2, 100 nM | 88.4
sgRNA knockout: sgHSF2, 1000 nM | 92.9
sgRNA knockout: sgHSF2, 10000 nM | 61.4
sgRNA knockout: sgKEAP1, 10 nM | 90.3
sgRNA knockout: sgKEAP1, 100 nM | 94.3
sgRNA knockout: sgKEAP1, 1000 nM | 75.9
sgRNA knockout: sgKEAP1, 10000 nM | 52.88
sgRNA knockout: sgNFE2L2, 10 nM | 87.8
sgRNA knockout: sgNFE2L2, 100 nM | 98
sgRNA knockout: sgNFE2L2, 1000 nM | 102
sgRNA knockout: sgNFE2L2, 10000 nM | 60.5
sgRNA knockout: sgSLC35F2, 10 nM | 94.4
sgRNA knockout: sgSLC35F2, 100 nM | 86.5
sgRNA knockout: sgSLC35F2, 1000 nM | 91.6
sgRNA knockout: sgSLC35F2, 10000 nM | 62.7
sgRNA knockout: sgXBP1, 10 nM | 87.6
sgRNA knockout: sgXBP1, 100 nM | 97.7
sgRNA knockout: sgXBP1, 1000 nM | 92.8
sgRNA knockout: sgXBP1, 10000 nM | 61

C=CCn1c(=O)c2cnc(Nc3ccc(N4CCN(C)CC4)cc3)nc2n1-c1cccc(C(C)(C)O)n1 [MK1775]
Conditions | relative cell number
sgRNA knockout: sgATF3, 10 nM | 95.9
sgRNA knockout: sgATF3, 100 nM | 75.8
sgRNA knockout: sgATF3, 1000 nM | 35.44
sgRNA knockout: sgATF3, 10000 nM | 25.7
sgRNA knockout: sgATF4, 10 nM | 83.4
sgRNA knockout: sgATF4, 100 nM | 74.3
sgRNA knockout: sgATF4, 1000 nM | 33.1
sgRNA knockout: sgATF4, 10000 nM | 26.51
sgRNA knockout: sgATF6, 10 nM | 99.5
sgRNA knockout: sgATF6, 100 nM | 75.9
sgRNA knockout: sgATF6, 1000 nM | 28.1
sgRNA knockout: sgATF6, 10000 nM | 27.4
sgRNA knockout: sgATG7, 10 nM | 94.8
sgRNA knockout: sgATG7, 100 nM | 77.7
sgRNA knockout: sgATG7, 1000 nM | 34.1
sgRNA knockout: sgATG7, 10000 nM | 24.6
sgRNA knockout: sgERN1, 10 nM | 92.8
sgRNA knockout: sgERN1, 100 nM | 81.3
sgRNA knockout: sgERN1, 1000 nM | 32.1
sgRNA knockout: sgERN1, 10000 nM | 30.8
sgRNA knockout: sgHSF1, 10 nM | 94.7
sgRNA knockout: sgHSF1, 100 nM | 67.7
sgRNA knockout: sgHSF1, 1000 nM | 34.3
sgRNA knockout: sgHSF1, 10000 nM | 23.5
sgRNA knockout: sgHSF2, 10 nM | 91.5
sgRNA knockout: sgHSF2, 100 nM | 77.8
sgRNA knockout: sgHSF2, 1000 nM | 32.8
sgRNA knockout: sgHSF2, 10000 nM | 28.6
sgRNA knockout: sgKEAP1, 10 nM | 92.9
sgRNA knockout: sgKEAP1, 100 nM | 80.1
sgRNA knockout: sgKEAP1, 1000 nM | 35.6
sgRNA knockout: sgKEAP1, 10000 nM | 28.9
sgRNA knockout: sgNFE2L2, 10 nM | 82.8
sgRNA knockout: sgNFE2L2, 100 nM | 70.7
sgRNA knockout: sgNFE2L2, 1000 nM | 33.25
sgRNA knockout: sgNFE2L2, 10000 nM | 20.8
sgRNA knockout: sgSLC35F2, 10 nM | 91.5
sgRNA knockout: sgSLC35F2, 100 nM | 73.23
sgRNA knockout: sgSLC35F2, 1000 nM | 34.7
sgRNA knockout: sgSLC35F2, 10000 nM | 29.5
sgRNA knockout: sgXBP1, 10 nM | 84.8
sgRNA knockout: sgXBP1, 100 nM | 65
sgRNA knockout: sgXBP1, 1000 nM | 33.3
sgRNA knockout: sgXBP1, 10000 nM | 32.9
